# According to PubChem BioAssay AID2685 (National Center for Advancing Translational Sciences (NCATS), 2010):
# Among all 320,000 compounds or so, about 2,100 (0.66%) were called active. The inconclusive results got no clear call from the source; some entries with a clear call stand among them for comparison. Calls come from the whole dose curve; as a rule, active = well fitted inhibition curve with a large enough effect in the signal ratio, with a control signal flat (not every such curve was filed as active); inconclusive = small, poorly fitted or top-dose-only effect, or effect the other way, or a change in a side signal; inactive = flat fitted curve, though single readings scatter; the % refers to the signal ratio. Where the call is inconclusive, the potency comes from a doubtful curve fit.
# Assay: qHTS Assay for Lipid Storage Modulators in Drosophila S3 Cells
# Details: BODIPY lipid droplet fluorescence, 18-24 h, cells fed with added oleic acid; lipid storage change, negative = inhibition: at 46.1 µM (top of the series) unless noted
# Method in brief: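 Drosophila S3 cells got compounds at several concentrations plus oleic acid (400 uM solution). Laser-scanning cytometry with 488 nm excitation read lipid droplets at 500-530 nm and cells at 575-640 nm. Percent activity was relative to 20 uM Triacsin C.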
# % is set by controls: 0 for no effect and ±100 for the full control effect; potency is the fitted concentration of half-maximal effect.
SMILES,Potency,"lipid storage change, negative = inhibition"
O=C(c1ccc2c(c1)OCO2)N1CCN(C(=O)c2ccco2)CC1,"inconclusive: 6.51 µM [falling, single point]",–
Cc1cccc(Cn2cnc3c(nnn3Cc3ccc(F)cc3)c2=O)c1,–,inconclusive: 7.11%
Cc1ccc(C(=O)COC(=O)c2cc(=O)[nH]c3ccccc23)cc1,–,inconclusive: -0.216%
CC(=O)N1CCc2cc(N=NC3=C(O)CC(C)(C)CC3=O)ccc21,–,inconclusive: -22.6%
NC(=O)COC(=O)c1c2c(nc3ccccc13)CCC2,–,inconclusive: 3.38%
CCC(C(=O)NCc1ccco1)N(C(=O)CNS(=O)(=O)c1ccc(C)cc1)c1ccccc1F (stereo not given),active: 1.16 µM,–
Cc1cccc(NC(=O)CSc2nnc(-c3ccco3)n2CC2CCCO2)n1 (stereo not given),–,inconclusive: -36.8%
O=C(Cc1ccc(S(=O)(=O)N2CCOCC2)s1)NNC(=O)c1ccccc1Cl,–,inconclusive: -27.2%
COc1ccc(C(=O)COC(=O)c2ccc3c(c2)NC(=O)CS3)c(OC)c1,–,inconclusive: 14.8%
Cc1nc2c3cnn(-c4ccc(C)c(C)c4)c3ncn2n1,–,inconclusive: -18.6%
Cc1nnc(NC(=O)C2(c3ccccc3)CCOCC2)s1,"inconclusive: 20.6 µM [falling, single point]",–
Cc1ccc(NC(=O)CO/N=C(\N)c2nonc2N)cc1C,"inconclusive: 5.8 µM [activator, partial curve, poor fit]",–
COc1ccc(C(=O)CNc2ccc(C)cc2C)cc1,–,inconclusive: 29.3%
CCCNc1ncnc2onc(C)c12,–,inconclusive: 23.6% [at 9.22 µM]
CCCOc1ccc(N2C(=O)CC(N(Cc3ccco3)C(C)=O)C2=O)cc1 (stereo not given),"inconclusive: 29.1 µM [cytotoxic, single point]",–
CCn1c(C)nc2cc(C(=O)N/N=C/c3ccc(OC)c(O)c3)ccc21,"inconclusive: 1.03 µM [activator, full curve, poor fit]",–
O=C(Cc1ccccc1)NCC(=O)Nc1cc(Cl)ccc1Cl,"inconclusive: 29.1 µM [activator, single point]",–
O=C(NCc1cccc(Cl)c1)c1cc(COc2ccc3ncccc3c2)on1,"inconclusive: 29.1 µM [cytotoxic, single point]",–
C[n+]1ccccc1/C=C1\Sc2ccccc2N1CCO,–,inactive
O=C(CCS(=O)(=O)c1cccc2nonc12)NCCc1ccccc1,"inconclusive: 16.4 µM [activator, partial curve]",–
Clc1ccc(-c2cc(-c3ccccc3)on2)cc1,"inconclusive: 7.31 µM [activator, partial curve]",–
CC1CCC(NC(=O)c2nc(Cn3ccc([N+](=O)[O-])n3)no2)CC1 (stereo not given),"inconclusive: 29.1 µM [activator, single point]",–
C=CCNC(=O)c1cc(-c2ccncc2)nc2c(C)cc(C)cc12,–,inconclusive: 0.53%
Cc1nnc(SCC2=C(C(=O)O)N3C(=O)C(NC(=O)C(C)n4nc(C(F)(F)F)cc4C)C3SC2)s1 (stereo not given),–,inconclusive: 8.86%
CCOc1ccc(NC(=O)CSc2nnc(-c3ccccc3Cl)n2Cc2ccco2)cc1,–,inconclusive: 4.46%

SMILES,Potency,"lipid storage change, negative = inhibition"
Cc1nc2c(sc3nc4c(cc32)COC(C)(C)C4)c(=O)n1CC(=O)NCc1ccco1,–,inconclusive: 6.84%
CC(Sc1nnc2c(n1)[nH]c1ccccc12)C(=O)N(C)C1CCCCC1 (stereo not given),"inconclusive: 6.51 µM [falling, single point]",–
O=C(c1cccs1)N1N=C(c2ccccc2)CC1c1ccccc1O (stereo not given),–,inconclusive: -25.7%
COC(=O)c1cc(C(=O)Nc2cc(C)on2)cc([N+](=O)[O-])c1,–,inconclusive: -3.42%
COc1ccc(CCNC(=O)c2cc(S(=O)(=O)N(C)C)ccc2N2CCCC2)cc1OC,–,inconclusive: -12.6%
CCOC(=O)c1ccc(Oc2ccc(C(F)(F)F)cn2)cc1,–,inconclusive: 5.42%
CCC(C)NC(=O)Cc1cn(C)c2ccccc12 (stereo not given),–,inconclusive: 31.8%
COC(=O)N/N=C/c1ccc(-c2ccccc2Cl)o1,"inconclusive: 0.103 µM [activator, full curve, poor fit]",–
CCCCC(=O)Nc1cc([N+](=O)[O-])ccc1Cl,"inconclusive: 0.651 µM [activator, partial curve, poor fit]",–
CCOc1ccc(CCNC(=O)COC(=O)c2cccc(S(=O)(=O)N3CCCC3)c2)cc1OCC,"inconclusive: 29.1 µM [cytotoxic, single point]",–
O=C1C(Nc2ccc(O)cc2)=C/C(=N/S(=O)(=O)c2cccs2)c2ccccc21,–,inconclusive: -56.5%
O=CN1CCN(C(C(=O)NC2CCCC2)c2cc3c(cc2[N+](=O)[O-])OCO3)CC1 (stereo not given),"inconclusive: 6.51 µM [rising, single point]",–
O=S(=O)(Cc1ccccc1)NCC1CCCO1 (stereo not given),"inconclusive: 9.2 µM [activator, partial curve]",–
OC(COc1ccccc1)CN1CCC(Cc2ccccc2)CC1 (stereo not given),–,inconclusive: 40.4%
COc1ccc(S(N)(=O)=O)cc1C(=O)N(C)CC(=O)Nc1ccc(N2CCOCC2)cc1,–,inconclusive: 3.14%
COC(=O)CN1C(=O)C(O)(CC(=O)c2ccc(C)cc2)c2ccccc21 (stereo not given),"inconclusive: 3.66 µM [falling, partial curve, poor fit]",–
CCn1c(N2CCN(S(=O)(=O)c3ccc(F)cc3)CC2)nc2ccccc21,–,inconclusive: -21.9%
CCOC(=O)C1=C(C)NC(=O)NC1/C=C\c1ccccc1 (stereo not given),"inconclusive: 3.66 µM [activator, single point]",–
CN1C(=O)[C@@H]2[C@H](C1=O)[C@@H]1C(=O)Nc3ccccc3C(=O)N1[C@@H]2c1cccc(Br)c1,–,inconclusive: 9.51%
CCOC(=O)/C=C1\SCC(=O)N1CC(=O)NC(C)c1ccc(F)cc1 (stereo not given),–,inconclusive: 13.3%
O=C(NC1CCCCC1)c1ccccc1NC(=O)C1CC(=O)N(c2ccccc2)C1 (stereo not given),–,inconclusive: -4.93%
COc1ccc(NC(=S)NCc2ccco2)cc1,–,inconclusive: -7.26%
CCOc1ccc(N2CC(C(=O)N3CCc4ccccc4C3)CC2=O)cc1 (stereo not given),–,inconclusive: -2.36%
Cn1c(-c2ccccc2)cnc1NCc1ccc(-c2ccccc2)cc1,–,inconclusive: 94.6%
CC(=O)c1sc(NCc2ccccc2)nc1C,–,inconclusive: 41.9%

# Compounds above with a nitro group on carbon:
SMILES,Potency,"lipid storage change, negative = inhibition"
CC1CCC(NC(=O)c2nc(Cn3ccc([N+](=O)[O-])n3)no2)CC1 (stereo not given),"inconclusive: 29.1 µM [activator, single point]",–
COC(=O)c1cc(C(=O)Nc2cc(C)on2)cc([N+](=O)[O-])c1,–,inconclusive: -3.42%
CCCCC(=O)Nc1cc([N+](=O)[O-])ccc1Cl,"inconclusive: 0.651 µM [activator, partial curve, poor fit]",–
O=CN1CCN(C(C(=O)NC2CCCC2)c2cc3c(cc2[N+](=O)[O-])OCO3)CC1 (stereo not given),"inconclusive: 6.51 µM [rising, single point]",–

# (cont.)

SMILES,Potency,"lipid storage change, negative = inhibition"
COc1ccc(CN2CCN(C(=O)C3CCC(CNS(=O)(=O)c4ccccc4)CC3)CC2)c(OC)c1OC (stereo not given),–,inconclusive: 19.4%
COc1ccc2nc(Nc3nc4cc5c(cc4s3)OCO5)sc2c1,"inconclusive: 0.92 µM [activator, full curve]",–
O=C(NCc1ccncc1)c1cc(C(=O)C2CCCCC2)c[nH]1,–,inconclusive: 14.9%
CCc1ccc(NC(=S)N2CCC(NC(=O)c3ccccc3OC)CC2)cc1,–,inactive
CCN1CCN(C(=O)c2ccc3c(c2)N(Cc2ccc(C)cc2)CCS3)CC1,–,inconclusive: 28.3%
Cc1cc(Oc2ccc(Br)cc2)nc(SCC(=O)c2ccccc2)n1,–,inconclusive: 18.9%
Cc1ccc(S(=O)(=O)Cc2cc(F)c([N+](=O)[O-])cc2[N+](=O)[O-])cc1,active: 0.411 µM,–
CCN(Cc1ccccc1)C(=O)C(=O)c1cn(CC(=O)N2CCCC2)c2ccccc12,–,inconclusive: 3.51%
CC(NC(=S)NCc1ccc(F)cc1)C12CC3CC(CC(C3)C1)C2 (stereo not given),–,inconclusive: -26.6%
CCn1c(SCc2nc3sc(C(=O)O)c(C)c3c(=O)[nH]2)nc2ccccc21,active: 20.6 µM,–
CC(C)[C@H]1C(=O)Nc2ccccc2N1C(=O)N[C@@H](Cc1ccccc1)C(=O)N[C@H](C(=O)O)c1ccccc1,–,inconclusive: 8.52%
COc1ccccc1NS(=O)(=O)c1ccc(Cl)c(NC(=S)NC(=O)C2CCCC2)c1,"inconclusive: 29.1 µM [activator, single point]",–
Cn1c(C(=O)N(Cc2ccccc2)Cc2cccs2)cc2sccc21,–,inconclusive: 106%
Cc1ccccc1Cn1c([N+](=O)[O-])cnc1C,–,inconclusive: -32.5%
S=c1[nH]c2ccc(Cc3ccc4[nH]c(=S)[nH]c4c3)cc2[nH]1,"inconclusive: 0.58 µM [activator, single point]",–
CC1Cc2cc(S(=O)(=O)NCCC(=O)NCc3ccc(F)cc3)ccc2N1C(=O)C1CC1 (stereo not given),–,inconclusive: -91.6%
CCCC(=O)Nc1ccc2c(c1)nc(CN1CCN(C(=O)OCC)CC1)n2CC,–,inconclusive: -4.9%
CCN1CCN(c2ccc(S(=O)(=O)N3CCOCC3)cc2NC(=O)COc2ccc(F)cc2Cl)CC1,"inconclusive: 32.6 µM [falling, single point]",–
O=C(Oc1cccnc1)c1ccc([N+](=O)[O-])cc1,–,inconclusive: 1.32%
CN1CCN(CCOc2ccc(Cc3ccccc3)cc2)CC1,"inconclusive: 29.1 µM [activator, single point]",–
CC(CC(=O)NCc1ccc(Cl)cc1)c1ccccc1 (stereo not given),"inconclusive: 20.6 µM [falling, single point]",–
CCCOc1ccc2oc(=O)c3c(c2c1)CCCN3C(=O)CN1CCN(c2ncccn2)CC1,–,inconclusive: -14.5%
Cc1cccc(N2CCN(C3=NC(=O)C(=C4CCCCC4)S3)CC2)c1,–,inconclusive: 68.9%
O=C(c1ccccc1F)N1CCN(c2ccccc2F)CC1,–,inconclusive: 5.2%
NC(=O)c1ccc(NC(=O)COC(=O)c2cccc(Oc3ccccc3)c2)cc1,"inconclusive: 1.16 µM [falling, full curve]",–
